About 170 (0.05%) of roughly 340,000 compounds were called active. Inconclusive results, whose numbers are uncertain, are shown with a selection of clear calls. Calls follow the shape of the dose curve; as a rule, active = well fitted inhibition curve with a large enough effect in the signal ratio, with a control signal flat (not every such curve was filed as active); inconclusive = small, poorly fitted or top-dose-only effect, or effect the other way, or a change in a side signal; inactive = flat fitted curve, though single readings scatter; the % refers to the signal ratio. A potency beside an inconclusive call is a rough fit, not a confirmed value.
Assay: qHTS Assay to Find Inhibitors of Chronic Active B-Cell Receptor Signaling;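 as to activity change, negative = inhibition: plate controls were basal doxycycline-induced cells for no effect and cells given 10 µM MG132 for full effect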
Conditions: ABC-DLBCL IkBa-CBG/CBR reporter, luminescence ratio (green luciferase fused to IkBa over red control in TMD8 lymphoma cells), 4 h; activity change, negative = inhibition: at 46.1 µM (top of the series) unless noted
Summary of the method: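 Compounds up to 46 uM were incubated four hours with TMD8 cells whose green CBG68 luciferase is fused to IkappaBalpha; red CBR luminescence normalised the signal, and concentration-effect curves were fitted to fusion, red and ratio data.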
Potency is read from the fitted curve at half-maximal effect.

| Structure (SMILES) | activity change, negative = inhibition | Potency |
| --- | --- | --- |
| Cc1cc(CN2CCCCC2)oc1C(=O)O | inconclusive: 30.5% | – |
| C=CCN=C1NN=C(c2cc(C)n(CCOC)c2C)CS1 | inconclusive: -0.223% | – |
| COCc1cc(C)nc(SCC[N+](C)(C)CC(=O)Nc2cccc(C(F)(F)F)c2)c1C#N | inconclusive: -24.9% | – |
| CC(C)N1CC(O)=C(c2ccccc2)C1=N | inconclusive: 7.46% | – |
| COc1ccc(C(=O)Nc2ccc(N3CCCC3)cc2)cc1OC | – | inconclusive: 2 µM [falling, partial curve, poor fit] |
| Cc1ccc(NC(=O)C2CC(=O)N(c3ccc4c5c(cccc35)CC4)C2)cc1 (stereo unspecified) | inactive: -0.473% | – |
| CCn1c(-c2ccccc2)c(C(=O)CCl)c2ccccc21 | – | inconclusive: 22.4 µM [falling, single point] |
| COc1ccc(N2CC(C(=O)Nc3nc(-c4ccccc4)c(C(C)=O)s3)CC2=O)c(OC)c1 (stereo unspecified) | inconclusive: -11% | – |
| COc1cc(Cl)c(CC(=O)c2c[nH]c3ccccc23)cc1OC | – | inconclusive: 11.2 µM [falling, partial curve] |
| Cc1ccsc1C(=O)Nc1n[nH]c(C(F)(F)F)n1 | – | inconclusive: 20 µM [falling, partial curve] |
| COc1ccc(/C=C/c2nc(C#N)c(NCCN(C)C)o2)cc1OC | inactive: -1.1% | – |
| Cc1nc2sc(C(c3cccs3)N3CCOCC3)c(O)n2n1 (stereo unspecified) | inconclusive: 9.77% | – |
| CCc1cccc(NC(=O)CCc2nc(-c3cccs3)no2)c1 | – | inconclusive: 6.51 µM [rising, partial curve] |
| CCOCC(=O)Nc1c(C(=O)Nc2ccccc2OC)oc2ccccc12 | inconclusive: 1% | – |
| CC(=O)Nc1ccc(C(=O)COC(=O)CCc2ccccc2)c(F)c1 | inconclusive: 2.67% | – |
| O=C(COC(=O)c1ccccc1NCCO)NCCC1=CCCCC1 | – | inconclusive: 13 µM [falling, partial curve] |
| O=C(CCN1C(=O)/C(=C\C=C\c2ccccc2)SC1=S)Nc1cccc(C(=O)O)c1 | – | inconclusive: 11.2 µM [falling, partial curve] |
| Cc1ccsc1CN(C)C(=O)c1cc(S(=O)(=O)N2CCOCC2)ccc1N1CCCC1 | inconclusive: 1.99% | – |
| Cc1[nH]c2ccccc2c1/C=C(/C#N)C(=O)NC(C)C | – | inconclusive: 11.2 µM [falling, partial curve] |
| CC(C)C[C@H](NC(=O)N1CCn2c1nc1ccccc12)C(=O)NCc1ccc2c(c1)OCO2 | inconclusive: -1.57% | – |
| CN1CCN(c2cc3c(c4c2[nH]c2ccccc24)C(=O)CC(C)(C)C3)CC1 | inconclusive: -27.3% | – |

| Structure (SMILES) | activity change, negative = inhibition | Potency |
| --- | --- | --- |
| CCCCC(=O)N1CCN(c2nc3ccc(OCC)cc3s2)CC1 | inactive: 1.79% | – |
| COc1ccccc1NC(=O)N1CCC(c2nc3cc(C)c(C)cc3[nH]2)CC1 | – | active: 18.4 µM |
| O=C(COC(=O)Cn1cnc2ccccc2c1=O)Nc1ccc(Cl)cc1 | inactive: -17.2% | – |
| CC(=O)c1cnc2c(-c3cccc(Br)c3)cnn2c1C | inconclusive: 1.42% | – |
| COc1cccc(CN2CCN(Cc3cc(OC)c(OC)c(OC)c3)CC2)c1OC | – | inconclusive: 35.5 µM [falling, single point] |
| COc1ccc(C2NC(=O)c3ccccc3O2)cc1 (stereo unspecified) | inconclusive: -0.734% | – |
| Cc1ccc(C)c(N2CCN(S(=O)(=O)c3cc4c(cc3C)NC(=O)CO4)CC2)c1 | inconclusive: 6.74% | – |
| CCN(C(=O)CSc1cc(-c2ccccc2)c2ccc(OC)cc2n1)C1CCS(=O)(=O)C1 (stereo unspecified) | – | inconclusive: 20.6 µM [falling, single point] |
| Cc1ccc(/C=N/N(C)C2=NS(=O)(=O)c3ccccc32)cc1 | inconclusive: 6.06% | – |
| O=C(N/N=C\c1ccc(F)cc1)c1ccc(F)cc1 | – | inconclusive: 35.5 µM [rising, single point] |
| CCc1c(C)nc2cc(-c3ccc(OC)c(OC)c3)nn2c1N1CCCC1 | – | inconclusive: 20 µM [falling, single point] |
| COC(=O)c1c(NC(=S)NN2CCOCC2)sc2c1CCCC2 | inconclusive: 25% | – |
| CCn1cc(C(=O)NCCC(C)C)c(=O)c2cc(F)c(N3CCN(C(=O)c4ccco4)CC3)cc21 | inactive: 0.813% | – |
| Cc1cccc(NC(=O)C2CCN(C(=O)NCc3ccccc3)CC2)c1C | inactive: -1.06% | – |
| N#Cc1c(NC(=O)CCCC(=O)O)sc2c1CCCCC2 | inconclusive: -18.3% | – |
| O=C(Nc1cccc(C(F)(F)F)c1)Nc1ccc(N2CCCC2)c(S(=O)(=O)Nc2ccccc2Cl)c1 | inconclusive: 9.07% | – |
| COc1ccc(Cc2nnc(NCCO)[nH]c2=O)cc1OC | inactive: 1.56% | – |
| C=CCN(c1ccccc1OC)S(=O)(=O)c1ccc(Cl)c(C(=O)Nc2ccc(N3CCOCC3)cc2)c1 | inconclusive: -24.6% | – |
| CCCc1[nH][nH]c(=O)c1C(c1ccccc1)C(C#N)C#N (stereo unspecified) | inactive: 3.29% | – |
| Cc1cccc(C)c1OCC(O)CNC(C)(C)C (stereo unspecified) | inactive: 0.202% | – |
| Cc1ccc(Nc2nc3ccccc3n3nnnc23)cc1 | – | inconclusive: 22.4 µM [falling, partial curve] |

A second format for part of the listing above.
Structure (SMILES),"activity change, negative = inhibition",Potency
CCCCC(=O)N1CCN(c2nc3ccc(OCC)cc3s2)CC1,inactive: 1.79%,–
COc1ccc(C2NC(=O)c3ccccc3O2)cc1 (stereo unspecified),inconclusive: -0.734%,–
CCN(C(=O)CSc1cc(-c2ccccc2)c2ccc(OC)cc2n1)C1CCS(=O)(=O)C1 (stereo unspecified),–,"inconclusive: 20.6 µM [falling, single point]"
Cc1ccc(/C=N/N(C)C2=NS(=O)(=O)c3ccccc32)cc1,inconclusive: 6.06%,–
O=C(N/N=C\c1ccc(F)cc1)c1ccc(F)cc1,–,"inconclusive: 35.5 µM [rising, single point]"
CCc1c(C)nc2cc(-c3ccc(OC)c(OC)c3)nn2c1N1CCCC1,–,"inconclusive: 20 µM [falling, single point]"

(more compounds)

| Structure (SMILES) | activity change, negative = inhibition | Potency |
| --- | --- | --- |
| CCCCNC(=O)c1cnn2c(C)c(Cc3c(F)cccc3Cl)c(C)nc12 | inconclusive: -5.3% | – |
| COc1ccc(-c2cc(C(=O)N3CCN(c4ccccn4)CC3)c3ccccc3n2)cc1 | inactive: 7.94% | – |
| Nc1ccc(C(=O)Nc2cccc(N)c2)cc1 | – | inconclusive: 12.6 µM [falling, partial curve, poor fit] |
| O=C(COC(=O)c1c2c(nc3ccccc13)CCCC2)Nc1ccc2c(c1)OCO2 | inconclusive: -19.1% | – |
| COc1ccc(NC(=O)CN2C(=O)CSc3ccc(S(=O)(=O)N4CCCC4)cc32)cc1OC | inconclusive: 7.25% | – |
| Oc1ccc(Oc2ccc3c(C(F)(F)F)cc(C(F)(F)F)nc3n2)cc1 | inactive: 3.01% | – |
| N=C1C(c2nc3ccccc3s2)=C(O)CN1NC(=O)c1c[nH]c2ccccc12 | inconclusive: 0.173% | – |
| Cc1ccccc1Cn1c(CN2CCC(C(=O)NCCN(C)C)CC2)cc2ccccc21 | – | inconclusive: 22.4 µM [falling, single point] |
| CCOC(=O)c1nc(-c2ccc(OC)c(OC)c2)no1 | inactive: -0.524% | – |
| COc1ccc(Cl)cc1NC(=O)CN(C)C(=O)c1ccc2c(c1)CC(c1ccccc1)OC2=O (stereo unspecified) | inconclusive: 12% | – |
| Fc1cccc(Nc2nc3ccccc3n3cnnc23)c1 | inconclusive: 3.64% | – |
| COc1ccc(-c2nnn(Cc3nc(N)nc(N4CCCCC4)n3)n2)cc1 | – | inconclusive: 16.4 µM [falling, single point] |
| Cc1ccn2c(C(=O)N/N=C/c3ccc(CNC(=O)C(=O)Nc4ccc(C)c(C)c4)o3)c(C)nc2c1 | – | inconclusive: 11.6 µM [falling, partial curve] |
| Cc1cccc(N2CCN(C(=O)CCSCc3ccccc3F)CC2)c1C | inconclusive: -3.68% | – |
| CCCC(=O)N(CCN(Cc1ccccc1)C(=O)CCC)Cc1ccccc1 | inconclusive: 17.6% | – |
| Cc1ccc(S(=O)(=O)Cc2ccc(C(=O)N3CCC(C)CC3)cc2)cc1 | inactive: 0.86% | – |
| CCOc1cccc(C(=O)NC(=S)Nc2ccc(Cl)cc2C(=O)O)c1 | – | inconclusive: 5.62 µM [rising, single point] |
| CN(C)S(=O)(=O)N(CC(=O)Nc1ccc(S(=O)(=O)N2CCCC2)cc1)c1ccccc1 | inconclusive: 0.489% | – |
| COc1cccc(CCNC(=O)c2ccc(C#N)cc2)c1 | inconclusive: 3.3% | – |
| Cc1cccc(OCc2n[nH]c(=S)n2C2CCCCC2)c1 | inactive: 1.89% | – |
| Cn1ncc2c(NNC(=O)c3ccc(O)cc3)ncnc21 | – | inconclusive: 20 µM [falling, partial curve] |

| Structure (SMILES) | activity change, negative = inhibition | Potency |
| --- | --- | --- |
| O=C(CCCOc1ccccc1)N1CCc2ccccc2C1 | inconclusive: 20.3% | – |
| O=c1cc[nH]c2c1ccc1cccnc12 | inconclusive: -1.98% | – |
| O=C(NCc1ccco1)c1cccnc1-c1nc2ccccc2s1 | inactive: 12.9% | – |
| CN(C)S(=O)(=O)c1ccc(C(=O)Nc2ccc(-n3nncc3-c3ccccc3)cc2)cc1 | inconclusive: 1.6% | – |
| Cc1c(Br)c([N+](=O)[O-])nn1CC(=O)Nc1ccc2nc3n(c(=O)c2c1)CCCC3 | – | inconclusive: 20 µM [falling, single point] |
| CNC(=S)N1N=C(c2ccc(C)cc2)CC1c1ccc(Cl)cc1 (stereo unspecified) | inactive: 26.5% | – |
| CN(C)S(=O)(=O)c1cccc(C(=O)Nc2cc(Cl)ccc2O)c1 | inconclusive: 2.72% | – |
| O=C(CSC1=Nc2ccccc2C2CC=NN12)Nc1ccc2c(c1)OCO2 (stereo unspecified) | inactive: -16.1% | – |
| CCCc1cnc2c(c1SCc1ccc(C(F)(F)F)cc1)c(=O)n(C)c(=O)n2C | inactive: -0.29% | – |
| CC(C)(C)OC(=O)N1CCC(c2c(C(=O)NCC3CCN(C4CCCC4)C3)cnn2-c2cccc(Cl)c2)CC1 (stereo unspecified) | inconclusive: 3.82% | – |
| O=[N+]([O-])c1ccc(Oc2ccc(C(F)(F)F)cn2)cc1 | inconclusive: 7.48% | – |
| COc1ccccc1NC(=O)CSC1CC(=O)N(c2ccc3c(c2)OCO3)C1=O (stereo unspecified) | inactive: -9.97% | – |
| CCN(CC(=O)Nc1c(F)cccc1F)C(=O)c1ccc(-c2ccccc2)cc1 | inconclusive: -24.2% | – |
| C=CCOc1ccc(/C=C/C(=O)OCC(=O)NCc2cccc(OC)c2)cc1 | inactive: 3.27% | – |
| CCCN1Cc2cccc(C(=O)Nc3cc(OC)cc(OC)c3)c2C1=O | inactive: 9.83% | – |
| O=C(N/N=C/c1ccc(O)cc1)c1ccc(COc2cc(Cl)ccc2Cl)o1 | – | inconclusive: 10 µM [falling, partial curve, poor fit] |
| CCCN1CCc2c(sc3nc(SCC)n(-c4ccccc4)c(=O)c23)C1 | inactive: -1.02% | – |
| Cc1c(N/C=C/C(=O)c2ccc(Cl)cc2)c(=O)n(-c2ccccc2)n1C | – | inconclusive: 25.9 µM [falling, partial curve] |

From PubChem BioAssay AID493014 (National Center for Advancing Translational Sciences (NCATS), 2011)
